# According to publication PMC10627786:
# Protein sequences, listed by entry. Tags and fused reporters are not part of them.
# UniProt Q14318: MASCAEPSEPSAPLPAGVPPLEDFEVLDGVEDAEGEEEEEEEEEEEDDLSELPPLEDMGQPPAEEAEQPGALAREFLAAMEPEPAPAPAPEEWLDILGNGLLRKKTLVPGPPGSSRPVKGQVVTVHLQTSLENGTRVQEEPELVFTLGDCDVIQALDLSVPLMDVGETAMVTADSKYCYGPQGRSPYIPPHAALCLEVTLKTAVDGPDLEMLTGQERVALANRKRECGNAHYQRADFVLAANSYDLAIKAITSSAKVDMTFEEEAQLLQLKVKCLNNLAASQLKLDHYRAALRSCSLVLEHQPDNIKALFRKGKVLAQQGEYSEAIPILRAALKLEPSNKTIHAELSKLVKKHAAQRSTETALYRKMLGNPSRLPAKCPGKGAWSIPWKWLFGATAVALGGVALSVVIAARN
# UniProt P51648: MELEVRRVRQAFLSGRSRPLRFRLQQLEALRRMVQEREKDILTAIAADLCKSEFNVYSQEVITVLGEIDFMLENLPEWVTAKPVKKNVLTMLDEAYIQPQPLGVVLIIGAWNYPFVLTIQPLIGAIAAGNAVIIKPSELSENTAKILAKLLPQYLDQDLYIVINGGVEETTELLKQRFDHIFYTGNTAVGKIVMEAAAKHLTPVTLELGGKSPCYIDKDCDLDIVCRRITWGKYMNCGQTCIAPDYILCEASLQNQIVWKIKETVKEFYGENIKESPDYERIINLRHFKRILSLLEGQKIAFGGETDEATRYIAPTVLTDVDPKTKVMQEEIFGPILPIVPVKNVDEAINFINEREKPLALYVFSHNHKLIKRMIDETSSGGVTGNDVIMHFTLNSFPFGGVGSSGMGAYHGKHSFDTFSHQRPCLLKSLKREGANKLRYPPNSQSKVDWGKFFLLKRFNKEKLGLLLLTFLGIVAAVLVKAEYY
# No constants are given. Whether binding was seen depends on the method and setting. In cells and extracts the contact can be indirect. Here binding means that the protein was enriched with, or labelled near, the bait; the list need not be complete. Where a sequence is shown, tags or fusion partners need not be part of it.
# What was measured:
# [1] = molecular target: T1, PDZD8 fused with BirA*-FLAG (BioID bait) (human) (UniProt Q8NEN9); assay: proximity labelling; BioID in stable inducible Flp-In T-REx 293 cells expressing BirA*-FLAG baits; mass spectrometry of biotinylated preys; SAINTexpress, two biological replicates per bait, 50 negative control runs, BFDR threshold 1%
# T1 sequence: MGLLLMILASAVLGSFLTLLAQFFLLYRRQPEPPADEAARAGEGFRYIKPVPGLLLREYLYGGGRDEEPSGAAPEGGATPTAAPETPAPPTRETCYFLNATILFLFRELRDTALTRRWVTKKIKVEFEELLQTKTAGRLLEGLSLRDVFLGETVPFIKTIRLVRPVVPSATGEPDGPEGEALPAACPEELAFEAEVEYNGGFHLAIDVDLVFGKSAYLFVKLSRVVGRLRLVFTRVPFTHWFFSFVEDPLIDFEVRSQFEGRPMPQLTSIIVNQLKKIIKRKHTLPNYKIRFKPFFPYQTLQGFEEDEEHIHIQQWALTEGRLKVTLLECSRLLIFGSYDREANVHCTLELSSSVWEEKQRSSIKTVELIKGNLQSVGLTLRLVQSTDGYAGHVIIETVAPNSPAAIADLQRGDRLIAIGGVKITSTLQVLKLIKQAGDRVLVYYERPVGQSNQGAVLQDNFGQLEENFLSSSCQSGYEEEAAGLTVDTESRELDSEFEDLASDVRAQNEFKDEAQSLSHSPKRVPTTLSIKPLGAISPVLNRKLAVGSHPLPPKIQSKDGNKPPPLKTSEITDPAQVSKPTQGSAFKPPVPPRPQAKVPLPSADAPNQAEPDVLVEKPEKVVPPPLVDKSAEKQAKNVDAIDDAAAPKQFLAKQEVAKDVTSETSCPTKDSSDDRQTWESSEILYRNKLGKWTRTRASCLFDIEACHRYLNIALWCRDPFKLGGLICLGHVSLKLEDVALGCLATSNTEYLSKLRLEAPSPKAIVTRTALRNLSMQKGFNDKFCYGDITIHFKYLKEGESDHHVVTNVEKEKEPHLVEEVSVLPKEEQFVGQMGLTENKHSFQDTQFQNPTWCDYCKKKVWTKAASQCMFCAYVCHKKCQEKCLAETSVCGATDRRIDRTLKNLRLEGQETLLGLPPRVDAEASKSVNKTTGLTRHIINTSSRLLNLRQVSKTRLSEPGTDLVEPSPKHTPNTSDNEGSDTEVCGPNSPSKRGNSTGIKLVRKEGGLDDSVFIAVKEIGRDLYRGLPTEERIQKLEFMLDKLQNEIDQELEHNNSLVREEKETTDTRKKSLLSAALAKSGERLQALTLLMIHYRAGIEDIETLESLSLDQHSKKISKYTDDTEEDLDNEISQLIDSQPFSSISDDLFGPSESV
# [2] = molecular target: T2, ESYT1 fused with BirA*-FLAG (BioID bait) (human) (UniProt Q9BSJ8); assay: as above
# T2 sequence: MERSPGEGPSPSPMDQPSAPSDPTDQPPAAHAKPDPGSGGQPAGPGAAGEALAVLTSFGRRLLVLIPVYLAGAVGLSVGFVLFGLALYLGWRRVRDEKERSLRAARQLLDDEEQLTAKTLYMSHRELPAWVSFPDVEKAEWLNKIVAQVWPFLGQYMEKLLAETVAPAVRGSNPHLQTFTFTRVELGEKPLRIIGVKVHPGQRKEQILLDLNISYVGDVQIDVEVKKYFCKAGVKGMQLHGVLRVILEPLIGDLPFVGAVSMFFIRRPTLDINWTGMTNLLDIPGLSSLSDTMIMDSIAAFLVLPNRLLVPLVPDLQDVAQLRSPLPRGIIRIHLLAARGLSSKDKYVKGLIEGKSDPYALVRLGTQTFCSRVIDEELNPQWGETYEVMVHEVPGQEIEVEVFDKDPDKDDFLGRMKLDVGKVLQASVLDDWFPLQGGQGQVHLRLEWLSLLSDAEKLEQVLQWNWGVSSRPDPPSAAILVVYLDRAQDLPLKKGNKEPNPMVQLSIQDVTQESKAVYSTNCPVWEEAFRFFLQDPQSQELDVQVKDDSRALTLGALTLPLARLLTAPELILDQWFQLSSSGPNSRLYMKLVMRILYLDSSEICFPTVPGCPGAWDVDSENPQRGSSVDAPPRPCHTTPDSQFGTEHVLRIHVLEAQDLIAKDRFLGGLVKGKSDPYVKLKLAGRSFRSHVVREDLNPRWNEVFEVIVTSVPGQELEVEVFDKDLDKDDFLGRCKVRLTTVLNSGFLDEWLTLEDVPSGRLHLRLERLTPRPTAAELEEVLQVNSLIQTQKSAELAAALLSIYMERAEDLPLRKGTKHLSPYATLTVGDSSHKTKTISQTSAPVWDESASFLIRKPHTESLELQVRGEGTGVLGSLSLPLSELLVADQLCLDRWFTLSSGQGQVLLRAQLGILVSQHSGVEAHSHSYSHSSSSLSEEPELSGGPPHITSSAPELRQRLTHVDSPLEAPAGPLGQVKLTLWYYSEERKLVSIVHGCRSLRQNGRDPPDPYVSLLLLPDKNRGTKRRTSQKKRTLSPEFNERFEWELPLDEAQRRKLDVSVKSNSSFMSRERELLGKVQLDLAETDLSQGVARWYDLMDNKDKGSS
binding [1],binding [2],Substance
binds,binds,FKBP8 (from UniProt Q14318 1-412)
binds,binds,ALDH3A2 (from UniProt P51648 1-485)
